{"source": "patent US9040307B2", "about": "“Fluorescent pH detector system and related methods” (Blood Cell Storage, Inc., priority 2011, dated 2015)", "assay": "Absorbance and emission spectra versus pH of SNAFL analogs in solution", "details": "free SNAFL analogs"}
{"smiles": "O=C(O)CCc1cc2c(-c3ccccc3C(=O)O)c3ccc4cc(O)c(Cl)cc4c3oc-2cc1=O", "note": "[EBIO-3]", "values": [{"measurement": "pH at which more sensitive to changes", "result": "~6.5"}]}
